Measurements from PubChem BioAssay AID2685 (National Center for Advancing Translational Sciences (NCATS), 2010).
Some of the results follow. Further columns of the screen follow, without active or inactive calls. Compounds called inactive in the main read-out are mostly missing here. Potencies come from curve fits of mixed quality, noted in brackets.

Assay: qHTS Assay for Lipid Storage Modulators in Drosophila S3 Cells;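 for cell number change: cells counted by Cell Tracker Red CMTPX staining in the red channel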
Conditions: BODIPY lipid droplet fluorescence, 18-24 h; for cell number change: measured here: cell count max response, cells fed with added oleic acid
Method in brief: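 Drosophila S3 cells got compounds at several concentrations plus oleic acid (400 uM solution). Laser-scanning cytometry with 488 nm excitation read lipid droplets at 500-530 nm and cells at 575-640 nm. Percent activity was relative to 20 uM Triacsin C.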

[1] = measured here: lipid fluorescence (Fed channel) AC50, cells fed with added oleic acid
[2] = measured here: cell number channel AC50, cells fed with added oleic acid

SMILES	cell number change [%]	AC50 [1]	AC50 [2]
O=C(COC(=O)Cc1ccc(F)cc1)NC(=O)NC1CCCC1	9.23	2.91 µM [rising, partial curve, poor fit]	–
CCOC(=O)c1ccc(Nc2nc(C)cc(=O)[nH]2)cc1	-5.2	–	–
CCOC(=O)C1CCN(CCC(=O)Nc2ccc(Cl)cc2)CC1	-24.6	–	–
Cc1csc(CNC(=O)C2CCC(=O)N(CCc3cccc(F)c3)C2)n1 (stereo not given)	-6.97	0.82 µM [falling, full curve, poor fit]	–
CCOC(=O)c1[nH]c2ccccc2c1NC(=O)c1ccc2c(c1)OCO2	-3.54	–	–
COc1ccc(OC)c(N=C(C)C2=C(O)COC2=O)c1	-3.23	8.2 µM [rising, partial curve]	–
COc1ccc(C(=O)NCCc2nnc3ccc(SCC(=O)NCCc4ccc(OC)c(OC)c4)nn23)cc1	26.1	6.51 µM [rising, single point]	0.146 µM [rising, full curve, poor fit]
Cc1ccc(NC(=O)CN(C)C(=O)c2cccc(S(=O)(=O)NCc3ccccc3)c2)cc1	16	7.31 µM [rising, partial curve, poor fit]	–
CN(c1ccc(Cl)cc1)S(=O)(=O)c1nnc(NC(=O)C(C)(C)C)s1	-37.8	–	23.1 µM [falling, single point]
Cc1c(C)n2c(SCC(=O)NC3CCCC3)nnc2[nH]c1=O	-15.5	29.1 µM [falling, single point]	–
Cn1c(=NC(=O)CSCC(=O)N2CCCCC2)sc2ccccc21	58.6	–	9.2 µM [rising, partial curve]
CCOC(=O)CC1(NC(=O)c2cc(COc3c(F)cccc3F)on2)CCCCC1	-31	23.1 µM [falling, single point]	16.4 µM [falling, single point]
CC(C)CCC(O)(c1ccccc1)C(CN1CCOCC1)c1ccccc1 (stereo not given)	0.709	1.16 µM [rising, full curve, poor fit]	–
O=C(Nc1ccc(S(=O)(=O)Nc2nccs2)cc1)c1cc(-c2ccccn2)nc2ccccc12	39.7	–	29.1 µM [rising, single point]
Cc1ccc(CN2CCN(C3CCC3)CC2CCO)cc1 (stereo not given)	17.3	5.8 µM [rising, full curve]	–
O=C(CNc1cccc2ccccc12)N/N=C/c1cccc(Oc2ccccc2)c1	1.91	–	–
COc1cccc(NC(=O)C(C)Oc2ccccc2)c1 (stereo not given)	-4.33	11.6 µM [rising, single point]	–
N#Cc1ccc(C(=O)NC2CCCc3ccccc32)cc1 (stereo not given)	-23.9	–	–
CC1CCCCN1Cc1c(O)ccc2c(=O)c(-c3ccc(Br)cc3)coc12 (stereo not given)	-1.39	4.11 µM [rising, full curve]	–
COCCNC(=O)CS(=O)(=O)Cc1nc(-c2ccc(C)cc2)oc1C	6.84	7.31 µM [rising, partial curve, poor fit]	–

SMILES	cell number change [%]	AC50 [1]	AC50 [2]
CCn1nnnc1NCc1ccc(SC)cc1	11.6	14.6 µM [rising, single point]	–
Cc1nn(Cc2ccc(F)cc2)c(C)c1NC(=O)c1noc2c1CCCCC2	–	1.16 µM [rising, full curve, poor fit]	0.731 µM [rising, single point]
Cc1noc(NS(=O)(=O)c2ccc(NC(=O)/C=C/c3ccc(Br)cc3)cc2)c1C	11	29.1 µM [rising, partial curve]	4.11 µM [rising, single point]
CN(CC(=O)Nc1ccccc1Cl)C(=O)Cn1cc(C(F)(F)F)ccc1=O	5.17	29.1 µM [rising, single point]	–
S=C(NC1CCCCC1)N1CCOCCOCCN(C(=S)NC2CCCCC2)CCOCC1	-16.5	32.6 µM [falling, single point]	–
O=C(O)c1cccc(-c2ccc(/C=N/NC(=O)C3COc4ccccc4O3)o2)c1 (stereo not given)	9.87	1.84 µM [rising, partial curve, poor fit]	–
C#CCOCCOCCOCCNc1nc(N2CCN(C(=O)[C@H](CCCCN)n3cc(CC(C)O)nn3)CC2)nc(N2CCN(C(=O)[C@H](CCCCN)n3cc(CC(C)O)nn3)CC2)n1 (stereo not given in full)	5.02	3.26 µM [falling, single point]	6.51 µM [falling, single point]
O=C(c1ccccc1)c1cccc(NC(=O)c2ccc(Br)o2)c1	24.1	1.46 µM [rising, full curve]	2.06 µM [rising, single point]
O=C(NC(=S)Nc1ccccn1)c1cncc(Br)c1	12.1	1.64 µM [rising, full curve, poor fit]	–
CCN1CCN(C(=O)CSc2nc3c(c(=O)n(C)c(=O)n3C)n2C)CC1	6.41	29.1 µM [falling, single point]	–
COc1ccc(-c2cc(-c3n[nH]c(=S)n3-c3ccccc3OC)[nH]n2)cc1	–	0.651 µM [rising, partial curve, poor fit]	–
CC1(C)Cc2cccc(OCC(=O)NCc3ccccc3F)c2O1	-17.6	–	–
O=C(Cn1c(=O)oc2cc(S(=O)(=O)N3CCCCC3)ccc21)N1CCc2ccccc2C1	-7.06	–	–
CCc1ccc(CN(C)C(=O)C2CCC(=O)N(Cc3cccc(OC)c3)C2)nc1 (stereo not given)	23.7	6.51 µM [falling, single point]	–
CC(C)CNC(=S)Nc1ccccc1F	-13	29.1 µM [falling, single point]	–
COc1ccc(C(=O)N2N=C(c3cccc(OC)c3)CC2(O)C(F)(F)F)cc1 (stereo not given)	55.9	2.31 µM [rising, full curve]	9.2 µM [rising, partial curve]
COc1ccc(NC(=O)CC2C(=O)N(c3ccc(OC)cc3)C(=O)N2CCc2cccs2)cc1 (stereo not given)	45	6.51 µM [rising, single point]	4.61 µM [rising, partial curve]
CC(C)CN(C(=O)c1cccc(S(=O)(=O)N2CCCCC2)c1)C1CCS(=O)(=O)C1 (stereo not given)	-7.03	2.59 µM [falling, full curve, poor fit]	–
COc1ccc(/C=N/NC(=O)c2cccnc2)cc1CSc1ccccn1	12.3	1.16 µM [rising, full curve, poor fit]	–
C=CCOc1ccccc1CN1CCCN(C)CC1	12.6	–	–

One compound at a time, from the list above:
`S=C(NC1CCCCC1)N1CCOCCOCCN(C(=S)NC2CCCCC2)CCOCC1` is entered as cell number change [%]: -16.5; AC50 [1]: 32.6 µM [falling, single point]
`CCOC(=O)CC1(NC(=O)c2cc(COc3c(F)cccc3F)on2)CCCCC1` is entered as cell number change [%]: -31; AC50 [1]: 23.1 µM [falling, single point]; AC50 [2]: 16.4 µM [falling, single point]

(cont.)

SMILES	cell number change [%]	AC50 [1]	AC50 [2]
COc1ccc(/C=N/NC(N)=S)cc1OC(=O)c1ccccc1	50.6	–	16.4 µM [rising, single point]
Cc1cc(C(=O)NCc2cc(C)n(C)n2)sc1-c1ccccc1	-22.1	6.51 µM [rising, single point]	6.51 µM [rising, single point]
Cc1ccc2c(cnn2C(=O)CCCC(=O)NC(C)c2ccccc2)c1 (stereo not given)	-17	29.1 µM [rising, single point]	–
CCCOc1ccccc1C1CC(=O)Nc2cc3c(cc21)OCO3 (stereo not given)	-86.1	–	–
Cc1oc2ccc(OC(C(=O)O)c3ccccc3)cc2c1C(=O)O (stereo not given)	19.2	13 µM [rising, partial curve]	–
CCOc1cccc(NC(=O)/C(C#N)=C\c2cn(CC(=O)O)c3ccccc23)c1	2.07	–	–
CC(C)C(C)NC(=O)COC(=O)/C=C/c1ccc(S(=O)(=O)N2CCc3ccccc32)cc1 (stereo not given)	40.5	–	11.6 µM [rising, partial curve]
CN1C(=O)C2(OCCCO2)c2cc(Cl)ccc21	-1.1	6.51 µM [rising, single point]	–
CC(=O)c1ccc(N2CCN(C(=O)CCCn3c(=S)[nH]c4cc5c(cc4c3=O)OCO5)CC2)cc1	-24.3	29.1 µM [falling, single point]	–
O=C(COC(=O)c1nc(Cl)ccc1Cl)NCc1ccccc1	-2.46	18.4 µM [falling, single point]	–
O=C(NC12CC3CC(CC(C3)C1)C2)C12CC3CC(C1)CC(n1cnc(Cl)n1)(C3)C2	-11.4	–	0.0291 µM [falling, full curve, poor fit]
COc1ccc(NC(=O)c2cc3c(-c4ccc(OC)c(OC)c4)nn(C)c3s2)cc1OC	–	–	2.31 µM [rising, partial curve]
COc1ccc(/C=C/C(=O)c2ccc3c(c2)OCCO3)cc1[N+](=O)[O-]	-22.8	29.1 µM [falling, single point]	–
COc1ccc(N=C2S/C(=C\c3ccc(OCC(=O)O)cc3)C(=O)N2CCc2c[nH]c3ccccc23)cc1	24.3	–	3.66 µM [falling, single point]
CC1CCCN(C(=O)CSCC(=O)N=c2sc3ccccc3n2C)C1 (stereo not given)	–	2.91 µM [rising, partial curve]	0.651 µM [rising, single point]
Cn1c(=O)c2c(SCC(=O)NCC3CCCO3)nc(-c3cccs3)nc2n(C)c1=O (stereo not given)	–	0.116 µM [rising, full curve, poor fit]	0.082 µM [rising, full curve, poor fit]
O=C(CCC(NC(=O)OCc1ccccc1)C(=O)OCc1ccccc1)NCC(=O)OCc1ccccc1 (stereo not given)	18.1	0.0058 µM [rising, full curve, poor fit]	–
CC1=C(C(=O)OCC(C)C)C23C(=O)c4ccccc4C2(O1)OC(N)=C3C#N (stereo not given)	0.349	0.731 µM [rising, single point]	–
CN(C)c1ccc(/C=C2\CCC/C(=C\c3ccccc3)C2=O)cc1	-98.1	16.4 µM [falling, partial curve]	20.6 µM [falling, partial curve]
